Experimental data as given in PMC5975398.
Results are given in words; binding and its absence hold for the method and conditions named. Some binding calls cover weakened binding; strength is not graded here.

The chains behind the UniProt entries cited, without tags or fusion partners. Where a name states a change or a piece, a line headed by the entry shows the natural chain unless it says otherwise.
UniProt P03372: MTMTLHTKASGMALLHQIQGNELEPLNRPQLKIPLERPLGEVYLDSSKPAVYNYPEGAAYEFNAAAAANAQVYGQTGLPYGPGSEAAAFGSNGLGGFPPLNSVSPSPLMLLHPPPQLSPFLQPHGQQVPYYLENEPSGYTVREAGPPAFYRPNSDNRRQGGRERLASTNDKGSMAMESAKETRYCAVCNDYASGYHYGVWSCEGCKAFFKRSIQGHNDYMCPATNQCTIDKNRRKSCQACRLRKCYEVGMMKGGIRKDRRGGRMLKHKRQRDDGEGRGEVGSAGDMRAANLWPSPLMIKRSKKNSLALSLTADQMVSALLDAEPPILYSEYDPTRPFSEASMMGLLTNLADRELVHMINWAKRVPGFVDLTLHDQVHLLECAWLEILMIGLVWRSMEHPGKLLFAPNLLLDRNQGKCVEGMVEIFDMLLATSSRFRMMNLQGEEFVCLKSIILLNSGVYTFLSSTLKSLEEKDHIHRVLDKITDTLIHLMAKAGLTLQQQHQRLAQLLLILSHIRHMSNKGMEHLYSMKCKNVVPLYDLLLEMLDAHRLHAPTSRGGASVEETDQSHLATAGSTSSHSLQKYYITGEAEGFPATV

Biological target: Estrogen receptor α (human (endogenous in MCF7 or T47D)) (UniProt P03372)
Assay: Re-ChIP (sequential chromatin immunoprecipitation); formaldehyde-crosslinked, sonicated chromatin of estrogen-treated cells; first immunoprecipitation with anti-ERα, eluted (1X TE, 2% SDS, 15 mM DTT), second immunoprecipitation with anti-ERRβ; read out by PCR of the half ERE sites of the ERRβ promoter

B1: Estrogen related receptor β (receptor, UniProt O95718 1-433)
chain: MSSDDRHLGSSCGSFIKTEPSSPSSGIDALSHHSPSGSSDASGGFGLALGTHANGLDSPPMFAGAGLGGTPCRKSYEDCASGIMEDSAIKCEYMLNAIPKRLCLVCGDIASGYHYGVASCEACKAFFKRTIQGNIEYSCPATNECEITKRRRKSCQACRFMKCLKVGMLKEGVRLDRVRGGRQKYKRRLDSESSPYLSLQISPPAKKPLTKIVSYLLVAEPDKLYAMPPPGMPEGDIKALTTLCDLADRELVVIIGWAKHIPGFSSLSLGDQMSLLQSAWMEILILGIVYRSLPYDDKLVYAEDYIMDEEHSRLAGLLELYRAILQLVRRYKKLKVEKEEFVTLKALALANSDSMYIEDLEAVQKLQDLLHEALQDYELSQRHEEPWRTGKLLLTLPLLRQTAAKAVQHFYSVKLQGKVPMHKLFLEMLEAKV
- binding: binds
